In the supplement of paper PMC3334620:
The full ranking holds about 33,000 sequences; the median of “E-score (-0.5 to 0.5)” is about -8e-05, and the highest 2% start at about 0.23. Some of the results follow.

biological target: T1, Nrg2 (UniProt P38082); assay: PBM E-score (8-mer binding enrichment) (E-score (-0.5 to 0.5)); higher = stronger / more preferred TF binding; conditions: protein concentration: 100 nM; construct: GST-full length
T1 sequence: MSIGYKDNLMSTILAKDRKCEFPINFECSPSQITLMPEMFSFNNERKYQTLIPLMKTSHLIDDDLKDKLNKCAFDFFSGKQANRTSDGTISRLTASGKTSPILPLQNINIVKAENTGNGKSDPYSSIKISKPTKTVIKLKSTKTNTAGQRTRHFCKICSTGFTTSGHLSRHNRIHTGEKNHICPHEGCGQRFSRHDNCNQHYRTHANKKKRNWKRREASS
How it was run: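 Universal all-10-mer Agilent arrays, double-stranded by primer extension on fresh or once-stripped slides, were probed with about 100-200 nM GST-tagged yeast transcription factors made by PURExpress. Fluorescent anti-GST detected bound protein, and masliner normalised the scans. E-scores from the Universal PBM Analysis Suite were given to each ungapped eight-base word pooled with its reverse complement.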

Sequence	PBM E-score
TACAGGAA	0.142
CTACCTTA	-0.0504
CCTTTCAC	-0.032
ATTGGCCG	-0.0805
CAGACGCC	-0.0604
GCGTTCCA	-0.0723
ATTTGCAG	0.0718
CCGCCCAA	-0.199
AGGCGAAG	-0.0691
CACAAACC	-0.0883
ATGCACGA	0.0553
CCTCCAGG	-0.343
ACTTCTAT	0.0768
AACTACAT	-0.038
CTCAGGAC	0.0581
AAGAACCG	0.105
CATCTCTA	-0.0359
ACATTCCT	-0.00288
CCAGCACG	-0.177
AGCCGAAC	0.0896
CCCCCAAG	-0.264
GCGGTTCA	-0.0816
GCAACCTA	0.0294
GACCGCAA	0.0774
TGGGACAA	0.111

Sequence	PBM E-score
CGCCGATC	0.116
ATAAACAC	-0.0494
GCCAAAAA	0.0821
ACGAACAG	-0.0593
GCACCGCC	-0.0993
AGCAGGGC	0.0681
ACGATCTG	-0.16
CTGGTATC	0.0594
CGCCCTGA	0.167
GCATGAAA	0.107
GATCGGTA	0.0263
AAGACATT	-0.194
ACATGGAG	-0.0527
GAGCTCCA	0.186
ACAAGTGT	-0.0494
AGCATCAC	0.0726
ATAATTAA	0.264
AGTCTCAA	-0.111
GAGTGGCA	-0.0082
ACTACCTG	0.0949
GTACACAC	0.0719
ACAAGGCA	0.00328
CAGCCACG	-0.0543
CTAGTGCC	-0.142
GACAAGGA	0.0442

Sequence	PBM E-score
AAACTCTT	-0.187
AGGATACA	-0.0516
CCTTGGAA	0.126
GTGGCGGA	-0.147
ACCCAAGC	-0.261
GAACGGGA	-0.0111
CGAAGAAG	0.0928
AATCCGTC	0.15
AGAAATCC	0.0476
AGGGATTA	0.14
ACTACCAC	-0.0407
CCTGAGCA	0.0611
ACCGTCGA	-0.0695
ATTGAGAA	0.232
GGCGTAAA	-0.0744
CGTCGAAG	-0.127
ACCTGTCG	-0.117
AGTGGTAA	-0.0244
CGAAGATC	-0.0553
CGTCCATC	0.0178
TGACTAAA	-0.137
CTTGATGA	0.0989
CTAAATAC	0.0507
TAACCAAA	0.0641
TGGGCCCA	0.306

Sequence	PBM E-score
CCGACATA	0.0482
ACTAGGTA	-0.0776
AAAAGGCT	-0.0256
ATACCGAG	-0.155
CGTCATGA	0.102
ATATGTGC	0.00203
AATTAGGC	0.0337
CGTGAACA	0.172
CTCATTTC	-0.0953
ACTGGTAC	0.0907
ATTTGCCC	0.136
GGGTATTA	0.0279
ACCCGAAA	0.122
ACGAGGTC	0.0584
AGCATTAT	0.0243
GCGGGTAA	-0.0727
CATAGAGG	-0.132
GGCCGTAC	0.0111
CCACCTGC	0.0233
CAGTCATC	-0.306
CGTACCGA	-0.105
CCTTTCTC	-0.113
CTGCATCC	0.0188
ACAAACAA	0.126
ATATATTC	0.131

Shown with each value named: part of the list above.
ATGCACGA
  PBM E-score: 0.0553
CCTCCAGG
  PBM E-score: -0.343
ACTTCTAT
  PBM E-score: 0.0768
AACTACAT
  PBM E-score: -0.038

(next part)

Sequence	PBM E-score
CCCCCATC	-0.319
CCTAATTA	0.00405
AATCCGGC	-0.12
GTCCTTAA	0.123
CGTAATAG	-0.00104
TAGGTCAA	0.055
ATAGTCTA	-0.136
TCCGTCCA	0.0419
GCGGTTAC	0.112
CAAGTTTA	0.0601
GATCGAAC	-0.0425
CCCAGTGC	0.037
GAGCTTCA	0.0629
AGTTTCTG	0.175
GTTTTGCA	0.11
CGAACGAA	0.138
AGCTCTCA	0.12
CTAAGCAA	-0.172
AAGCTCTG	-0.126
GTTTAGTA	0.147
ACGAATTG	0.0986
TAACAGCA	0.127
ACGGTTAG	-0.312
GCTGAGGA	-0.123
AACAGCAC	0.0478

Sequence	PBM E-score
AGGAATGC	-0.118
AATCCGAG	0.0199
CTTTGACC	0.0538
TCTTTCAA	0.0473
GGCCTTGA	0.00166
CGGATTCA	-0.0792
GCATCGGA	0.0245
AATCTCTC	-0.0607
ACGTACCA	-0.107
CCCTCCTC	-0.161
ACCACTCG	0.0998
GTAGTGGA	0.152
AGTCTTTG	-0.25
AAATAAGT	0.11
ATAGCAGC	-0.104
ATACATAC	0.0623
ACCCTAGC	0.0587
AACACTGA	0.195
GCAGAGCC	-0.212
CTATTGCC	-0.0633
GGGCTAAC	-0.0739
AACTCATC	0.0905
CGGCGTGC	-0.125
AGAATCAA	0.103
GTAATCCA	0.0761

Sequence	PBM E-score
AACGGAAG	0.0569
CCGTTCAA	0.154
CACGCTAG	-0.0901
ACTCCATG	-0.101
CCGAAACC	-0.246
GTGCTACA	-0.208
CTTGGCCC	-0.224
GGATCCCC	-0.0824
CATCTGCA	0.098
AGCTTGTG	0.00263
GTTGCCCA	0.086
TAGCAGAA	0.0621
ATTTAGCA	0.012
AGGATGAG	-0.014
TTCGAAAA	0.164
AGGGAGAC	-0.0587
CCTCTGGC	-0.0616
ACGTGGAA	0.0714
AAGTAGTA	-0.0279
ATACTCCC	-0.0596
CGCGAATC	-0.0456
ACCAAGAA	0.144
AATAGTAT	0.17
CAATGAAG	0.00114
CTATGTTC	0.0921

3 entries picked at random from those above:
Sequence	PBM E-score
GGATCCCC	-0.0824
GTGCTACA	-0.208
CGCGAATC	-0.0456

Later entries.

Sequence	PBM E-score
AACAGAGA	0.0705
ATGGGGCC	-0.195
CCATCAAC	0.0217
AATAAGTC	-0.0943
AGACCACT	0.0184
GCCAGCGA	-0.0867
AACGGTTA	-0.165
AACTTATT	0.256
ACACTAGC	-0.00995
CGGACACG	-0.0788
AAGTATCC	0.0677
AACTGTAG	0.0915
CGGGGGTC	-0.342
AAATACAA	0.0802
GCCTGTAC	0.0536
CACTTCGC	-0.00344
GGGAACCC	0.0858
CATGAAAA	0.156
CCGGCTCG	-0.0875
CGACGAGA	-0.0355
TACATCAA	-0.00852
CCGACTCG	-0.0799
AGATTTGG	-0.144
CACAACCA	0.0444
GAGTGGGC	-0.125

Part of the list above, as a markdown table:

| Sequence | PBM E-score |
| --- | --- |
| GCGGTTAC | 0.112 |
| CAAGTTTA | 0.0601 |
| GATCGAAC | -0.0425 |

Continuation.

Sequence	PBM E-score
AATTCTGC	0.139
AAGCGGCG	-0.106
ACCTCACG	-0.0625
CTAATGCC	-0.0237
GGTATCGA	0.203
AACACAGG	0.0478
AGAGGATG	0.0356
CGTGAACC	-0.165
CTTCGGTA	-0.0647
AGTTCGAA	0.181
CTCTCAAC	-0.121
CACTGACC	-0.038
GTAACAAA	0.0273
GCCTCTTA	-0.00061
AGGCTAAG	-0.145
CGATTACC	0.0511
TCAGAGAA	-0.0852
CTTCGCTA	0.143
AGACAAAT	0.0467
CATATAAG	0.0579
ACCGTATC	-0.16
CTTCATAA	0.0697
AATACCGC	-0.0057
CCACTAGG	-0.0849
CATTGACC	0.0998

Sequence	PBM E-score
ACTTCCAT	-0.09
GGGTCCTA	0.191
GGTCGCAC	-0.0388
ATTTTCCA	0.0889
CGACAACA	0.157
CCAATAAG	-0.0823
GCTGTGCC	0.0262
GAGCTACC	0.00878
GAGAAGCC	0.0783
TGCCCGAA	0.0694
GAAGTCGC	0.0236
CCACGGAA	0.00928
GTATCCGA	-0.00528
ACGCCTTA	-0.196
AAAACGAG	-0.117
CGTCAGTA	-0.114
CCGGCGAG	0.0556
GAGGGAGC	-0.26
AGGTTTAA	-0.0352
TGATATAA	-0.183
ATCCCCTG	-0.0829
ACTACAGA	0.131
ACTGCTTG	-0.218
GCCTCTCC	-0.162
AATATTAG	0.256

Sequence	PBM E-score
GTCATCAC	-0.0469
ATCGCGCA	-0.004
GAACACAA	-0.0379
AAGCCATC	0.0293
ATGCTGAA	-0.0269
CAGCCGAC	-0.109
ATTAGTTA	0.268
AGACCTGA	-0.041
CACGTCCA	-0.177
TCCTTAGA	-0.274
AGACTATC	-0.136
ATTCAGTG	0.154
AGGCGTGC	-0.104
TAGGGAGA	-0.0425
AGCGCACG	0.0197
ACAGTAGG	-0.0181
GCTCCTAA	-0.137
AGGATCCC	0.0569
GTCGGAAC	-0.052
GCTCAGAA	-0.0105
GCAACTGA	0.216
GGTCAAAC	-0.068
CCCTCGCA	-0.0483
GGGATAAA	0.22
ACACGCAG	-0.0725

Sequence	PBM E-score
ACTTTAAG	0.243
CCTTTTGC	0.0394
GCATCCGC	-0.00657
ACGCCTGC	-0.132
ATCGGCCC	-0.0201
CCTCACTA	-0.0681
AAACAGAA	-0.0904
TATTAGGA	-0.0292
CTTCCAGA	-0.0795
AATTCCAA	0.0999
CGGCGTAA	0.0198
CTCATACA	0.0364
GCATGTGA	0.0613
GTCGCATA	0.141
ATGGGTCG	-0.00231
GACATGCA	-0.0301
CGACAGCA	0.0178
CGACCTTC	0.0897
AGGCCTTC	-0.163
ACCTGAGT	-0.114
AGATACAG	0.136
ACTGGCAG	-0.0924
GATCTCGA	0.148
AGGACGAT	0.0844
GGACGGTA	-0.197

Sequence	PBM E-score
CGCGCATA	0.116
CACGCGAC	0.00687
AGGAACCG	-0.107
ATCGGAAT	0.137
GCCTGTCA	-0.0935
ACATAAGG	0.0478
CCTCTGGA	-0.0587
AACTGACG	-0.11
CCGTTCGC	-0.11
AAGCAACC	0.0926
ACACCCTA	0.108
CACATAAC	-0.0329
CCGCAGCC	-0.107
AGTTGAAG	-0.0018
GGTTACTA	-0.0731
AACACATC	-0.0582
AGAGCGCT	0.0785
ATCCGACG	0.138
CCTTTAAA	-0.0552
ACGTAAAA	0.0312
GCGACGAA	0.0789
AAGCAATG	0.171
TAAGGCTA	0.00969
AAGAGATT	0.00595
ACCTTACA	-0.133

Sequence	PBM E-score
CCGCACGC	-0.0769
ATAGTGCC	-0.0203
GGAGATAA	-0.0475
CCCTTGTC	0.0459
CGGCCAAG	-0.0413
GGGTAGAC	-0.106
CTAGTCAA	-0.0441
ACCATGAT	-0.0731
TTGGCAAA	0.132
TAATGGCA	0.0836
CTCTTGCA	0.00461
ACCTTGAC	-0.0126
ACATCCTC	-0.0204
ATCTCACC	-0.0204
CGCTCGCC	0.00185
AGTCTCCA	-0.234
CTCCGCGA	0.115
GGTGTGTA	-0.0167
CTGTATTC	0.0269
